US10732174B2, “Three dimensional tissues for high-throughput assays” (INVIVOSCIENCES, INC., priority 2008, dated 2020)
Some entries share one result that the patent states for a list of compounds. At least one structure is not confirmed: it was looked up by name or label, or the drawing left a doubt.

System: mitochondrial membrane potential in HTCs of REF-52 cells
Experiment: HTC TMRE labeling, mitochondrial potential
Type: cell-based, rat
Conditions: 3 and 24 hr
Description: The ethyl ester of tetramethylrhodamine (TMRE, T-669, Invitrogen, Carlsbad, Calif.) was used to quantify the mitochondrial potential of the HTCs. HTCs were incubated in 100 nM TMRE for 30 min and then in phenol red free 10% FBS DMEM for 60 min. Phenol red free medium was used to prevent interference with TMRE fluorescence reading. Following labeling, HTCs were preconditioned with three stretches and then prior to background force measurement. HTC TMRE signal was then read on a Synergy HT plate reader (Biotek Instruments, Winooski, Vt.). A custom made adapter plate was used to position the tissue molds on the plate-holding rack of the plate reader. Fluorescence signal was read from the bottom using the 543/590 excitation/emission filter set and a gain setting of 50. TMRE fluorescence intensity was also read following each force measurement at predetermined time points after drug treatments.
TMRE is cationic and accumulates in the mitochondria as a function of MMP. […] More detailed investigation of DNP's effect on TMRE accumulation using confocal microscopy improved signal detection in both monolayers and HTCs (FIG. 6C and FIG. 6D).

Structure (SMILES)	extent of reduction of mitochondrial membrane potential
C=C1[C@@H](C)[C@H]2[C@H](Cc3ccccc3)NC(=O)[C@]23[C@H](OC(C)=O)/C=C/[C@@](C)(O)C(=O)[C@@H](C)C/C=C/[C@H]3[C@@H]1O [CD, Cytochalasin D]	10-20%
C=C(C)[C@H]1Cc2c(ccc3c2O[C@@H]2COc4cc(OC)c(OC)cc4[C@@H]2C3=O)O1 [ROT, rotenone]	10-20%
